PubChem BioAssay AID652243 | Drosophila RNAi Screening Center – 2013
Test: 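Fly genes required for human androgen receptor driven transcription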 (primary screen). Cell system: Drosophila S2R+ cells. Reagent: long dsRNA against Drosophila genes. Duration: 72 h (48 h, then 24 h hormone). Challenge: synthetic androgen R1881 at 10 nM for 24 h. Measured: 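Per-well raw luminescence of the androgen-driven firefly reporter and of the Renilla control, two replicates each, without normalisation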. Direction: firefly reporter light: higher = more light from androgen-responsive reporter; Renilla control light: higher = more constitutive control signal (cell number, transfection). Rule for the call: 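Across duplicate plates, a knock-down whose log firefly/Renilla ratio shifted a set fold down or up from the GFP/LacZ control mean was a hit; the downward cut appears as both 1.5 and 3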. Calls: active = hit: reporter lowered or raised; inactive = no hit.
In all, the deposit lists about 24,000 reagents; below is an unselected part of those that have a named target and a result. Of all reagents, 246 (1%) are marked active. 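Plates not normalised; calls are printed but the firefly/Renilla ratio behind them is not deposited; fold cut for lowering reported inconsistently.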 Raw values vary from plate to plate and are shown uncorrected. Reagents against one gene are numbered here. Names joined by + are all predicted targets of the reagent. No sequences are given here. Not given: the amount of reagent.

gene	reagent	firefly reporter light, replicate 1	firefly reporter light, replicate 2	Renilla control light, replicate 1	Renilla control light, replicate 2	call
CG17343 (GeneID 35180)	1	1.91e5	2.26e5	2.31e6	2.64e6	inactive
CG17343 (GeneID 35180)	2	2.73e5	5.11e5	5.43e5	8.38e5	inactive
CG17343 (GeneID 35180)	3	2.08e5	2.58e5	5.65e5	5.66e5	inactive
T3dh + pgc	1	7.54e5	6.09e5	1.14e6	9.95e5	inactive
ClC-a (GeneID 41428)	1	2.16e5	2.63e5	2.56e6	2.70e6	inactive
ClC-a (GeneID 41428)	2	1.46e5	1.51e5	2.32e6	2.72e6	inactive
ClC-a (GeneID 41428)	3	56282	53932	4.01e5	6.49e5	inactive
CG1416 (GeneID 35426)	1	8.80e5	4.51e5	2.68e6	1.84e6	inactive
CG33253 (GeneID 2768889)	1	2.83e5	1.16e5	9.09e5	4.34e5	inactive
CG33253 (GeneID 2768889)	2	7.25e5	1.00e6	1.62e6	2.22e6	inactive
zetaTry (GeneID 36216)	1	3.01e5	1.57e5	1.77e6	1.07e6	inactive
CG3546 (GeneID 31389)	1	1.20e5	89576	4.22e6	3.37e6	inactive
CG3546 (GeneID 31389)	2	8.37e5	9.49e5	1.16e6	1.33e6	inactive
BtbVII (GeneID 38376)	1	12960	10267	4.38e5	4.71e5	inactive
BtbVII (GeneID 38376)	2	8.31e5	4.49e5	1.49e6	9.96e5	inactive
BtbVII (GeneID 38376)	3	1.08e6	1.14e6	6.83e5	7.19e5	inactive
CG7791 (GeneID 35511)	1	1.19e6	7.30e5	1.33e6	1.27e6	inactive
CG12811 (GeneID 41229)	1	2.35e5	1.77e5	3.13e6	3.51e6	inactive
Pus10 (GeneID 33178)	1	1.09e6	9.76e5	3.25e6	1.70e6	inactive
Kaz1-ORFB (GeneID 3772691)	1	95003	2.02e5	9.07e5	1.04e6	inactive
CG6484 (GeneID 36994)	1	1.59e6	1.48e6	2.89e6	2.43e6	inactive
CG6484 (GeneID 36994)	2	5.41e5	4.72e5	1.84e6	1.56e6	inactive
sds22 (GeneID 42091)	1	69844	82756	9.97e5	9.30e5	inactive
sds22 (GeneID 42091)	2					inactive
ValRS (GeneID 45783)	1	1.33e6	1.21e6	1.46e6	1.12e6	inactive
CG4372 (GeneID 37490)	1	2.31e5	3.08e5	2.36e6	2.16e6	inactive
Rsph1 (GeneID 34712)	1	1.41e5	1.66e5	1.49e6	1.46e6	inactive
Rsph1 (GeneID 34712)	2	2.98e5	2.48e5	4.12e5	3.90e5	inactive
krimp (GeneID 36804)	1	4.12e5	2.93e5	5.75e5	4.49e5	inactive
Vsx1 (GeneID 31470)	1	6.45e5	8.28e5	1.70e6	2.00e6	inactive
Vsx1 (GeneID 31470)	2	4.36e5	4.48e5	9.36e5	6.82e5	inactive
Nipped-B (GeneID 3355136)	1	76696	1.05e5	1.05e6	1.25e6	inactive
Nipped-B (GeneID 3355136)	2	8.70e5	3.47e5	1.62e6	9.48e5	inactive
bsk (GeneID 44801)	1	7.07e5	7.95e5	2.03e6	1.77e6	inactive
bsk (GeneID 44801)	2					inactive
bsk (GeneID 44801)	3					inactive
CG33465 (GeneID 3885587)	1	1.08e5	1.67e5	4.49e5	3.62e5	inactive
Gr93b (GeneID 117472)	1	7.18e5	5.80e5	1.04e6	9.80e5	inactive
Rpt4 (GeneID 31567)	1	1.45e5	1.38e5	1.80e6	1.84e6	inactive
His3.3B (GeneID 31848)	1	3.66e5	3.57e5	1.76e6	1.90e6	inactive
His3.3B (GeneID 31848)	2	4.17e5	4.92e5	1.14e5	1.54e5	inactive
His3.3B (GeneID 31848)	3	6.15e5	8.70e5	8.61e5	1.20e6	inactive
His3.3B (GeneID 31848)	4	6.52e5	7.82e5	1.44e6	1.50e6	inactive
CG7332 (GeneID 32885)	1	45932	1.48e5	4.41e5	1.08e6	inactive
CG7332 (GeneID 32885)	2	4.48e5	4.41e5	1.16e6	1.31e6	inactive
CG7332 (GeneID 32885)	3	5.32e5	5.48e5	1.38e6	1.28e6	inactive
Tengl4 (GeneID 41321)	1	1.37e5	2.10e5	2.72e6	3.30e6	inactive
Snmp2 (GeneID 38868)	1	2.07e5	2.68e5	2.71e6	2.90e6	inactive
Snmp2 (GeneID 38868)	2	67135	98039	1.12e6	1.01e6	inactive
Klp3A (GeneID 31240)	1	1.17e5	94555	1.27e6	8.96e5	inactive
Klp3A (GeneID 31240)	2	9.19e5	7.30e5	1.79e6	1.41e6	inactive
snRNA:U1:82Eb (GeneID 3771770)	1	7.12e5	5.96e5	1.44e6	1.42e6	inactive
lama (GeneID 38610)	1	7.89e5	7.06e5	1.34e6	1.35e6	inactive
CG5068 (GeneID 39032)	1	1.09e6	1.48e6	1.13e6	2.53e6	inactive
CG7542 (GeneID 39960)	1	2.21e5	1.18e5	2.47e6	1.57e6	inactive
Sc2 (GeneID 38457)	1	1.34e6	9.24e5	1.75e6	1.05e6	inactive
Sc2 (GeneID 38457)	2	3.30e5	2.47e5	6.93e5	4.59e5	inactive
betaNACtes6 + betaNACtes3	1	5.38e5	5.44e5	7.04e5	6.06e5	inactive
CG2931 (GeneID 40673)	1	60121	46843	1.43e6	1.23e6	inactive
gas (GeneID 37572)	1	2.80e5	2.85e5	2.04e6	1.39e6	inactive
NijA (GeneID 39215)	1	2.14e5	1.81e5	3.22e6	2.27e6	inactive
CG42445 (GeneID 8674111)	1	8.19e5	5.61e5	1.72e6	1.49e6	inactive
Hrd3 (GeneID 42806)	1	53210	42265	4.25e5	4.36e5	inactive
p24-1 (GeneID 32140)	1	2.86e5	1.91e5	2.52e6	2.30e6	inactive
p24-1 (GeneID 32140)	2	2.98e5	2.64e5	7.73e5	7.51e5	inactive
Fnta (GeneID 33682)	1	7.61e5	1.22e6	1.56e6	1.49e6	inactive
Fnta (GeneID 33682)	2	4.35e5	3.21e5	9.67e5	1.01e6	inactive
CG6144 (GeneID 34443)	1	5.24e5	4.43e5	3.23e6	3.20e6	inactive
CycT (GeneID 39961)	1	5202	5950	1.10e5	1.35e5	active
CycT (GeneID 39961)	2	1.47e5	1.27e5	4.28e5	4.42e5	inactive
CycT (GeneID 39961)	3	1.15e5	1.82e5	4.40e5	4.40e5	inactive
CycT (GeneID 39961)	4					inactive
CycT (GeneID 39961)	5					inactive
Ppox (GeneID 42939)	1	2.23e5	2.38e5	2.47e6	2.53e6	inactive
